Assay results taken from article PMC8213733, “Subtype-specific collaborative transcription factor networks are promoted by OCT4 in the progression of prostate cancer” (Nature Communications, 2021).
No constants are given. Whether binding was seen depends on the method and setting. For part of these data: In cells and extracts the contact can be indirect. Some entries that bind do so weakly or less than the wild type. For part of these data: Where a sequence is shown, tags or fusion partners need not be part of it.

Chains of the proteins cited; added tags and fusions are not shown.
UniProt P10275: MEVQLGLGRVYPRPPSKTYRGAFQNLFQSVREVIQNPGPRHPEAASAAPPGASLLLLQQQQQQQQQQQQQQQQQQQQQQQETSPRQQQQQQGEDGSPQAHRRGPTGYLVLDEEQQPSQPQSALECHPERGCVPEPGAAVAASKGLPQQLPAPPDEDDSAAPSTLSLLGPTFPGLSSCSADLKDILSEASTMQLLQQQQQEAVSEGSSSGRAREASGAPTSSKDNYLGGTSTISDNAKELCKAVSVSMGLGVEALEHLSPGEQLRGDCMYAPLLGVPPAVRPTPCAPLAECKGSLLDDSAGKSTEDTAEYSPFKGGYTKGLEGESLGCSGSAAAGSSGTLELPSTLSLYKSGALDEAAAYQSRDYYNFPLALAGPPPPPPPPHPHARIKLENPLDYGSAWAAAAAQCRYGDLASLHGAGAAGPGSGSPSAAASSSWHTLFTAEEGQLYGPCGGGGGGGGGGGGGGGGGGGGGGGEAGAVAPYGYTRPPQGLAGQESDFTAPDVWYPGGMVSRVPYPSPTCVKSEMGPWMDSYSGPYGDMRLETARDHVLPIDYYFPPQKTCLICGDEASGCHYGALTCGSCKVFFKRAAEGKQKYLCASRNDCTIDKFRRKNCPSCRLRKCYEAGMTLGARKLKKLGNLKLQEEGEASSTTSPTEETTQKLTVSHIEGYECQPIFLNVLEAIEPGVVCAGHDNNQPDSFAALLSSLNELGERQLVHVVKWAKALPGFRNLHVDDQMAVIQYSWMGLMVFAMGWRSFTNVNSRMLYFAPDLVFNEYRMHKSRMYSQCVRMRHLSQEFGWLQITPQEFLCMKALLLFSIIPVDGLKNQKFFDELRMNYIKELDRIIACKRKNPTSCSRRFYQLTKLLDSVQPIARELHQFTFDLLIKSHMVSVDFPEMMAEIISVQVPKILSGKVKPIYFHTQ
UniProt Q01860: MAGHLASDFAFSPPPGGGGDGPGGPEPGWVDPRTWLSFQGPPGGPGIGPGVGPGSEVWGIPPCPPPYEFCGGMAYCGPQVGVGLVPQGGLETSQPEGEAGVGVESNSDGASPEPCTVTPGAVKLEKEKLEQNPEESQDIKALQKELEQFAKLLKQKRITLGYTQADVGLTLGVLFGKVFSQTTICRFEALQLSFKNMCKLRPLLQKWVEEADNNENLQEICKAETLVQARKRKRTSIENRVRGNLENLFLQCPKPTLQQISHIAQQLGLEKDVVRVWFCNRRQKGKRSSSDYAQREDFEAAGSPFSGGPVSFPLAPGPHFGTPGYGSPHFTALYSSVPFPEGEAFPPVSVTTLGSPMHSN

Experiments:
[1] = biological target: T1, Flag-FOXA1 (human (cDNA of PC cells, said of the Venus constructs)) (UniProt P55317); experiment: co-IP; with and without added AR (Supplementary Fig. 1e); set-up not shown
T1 sequence: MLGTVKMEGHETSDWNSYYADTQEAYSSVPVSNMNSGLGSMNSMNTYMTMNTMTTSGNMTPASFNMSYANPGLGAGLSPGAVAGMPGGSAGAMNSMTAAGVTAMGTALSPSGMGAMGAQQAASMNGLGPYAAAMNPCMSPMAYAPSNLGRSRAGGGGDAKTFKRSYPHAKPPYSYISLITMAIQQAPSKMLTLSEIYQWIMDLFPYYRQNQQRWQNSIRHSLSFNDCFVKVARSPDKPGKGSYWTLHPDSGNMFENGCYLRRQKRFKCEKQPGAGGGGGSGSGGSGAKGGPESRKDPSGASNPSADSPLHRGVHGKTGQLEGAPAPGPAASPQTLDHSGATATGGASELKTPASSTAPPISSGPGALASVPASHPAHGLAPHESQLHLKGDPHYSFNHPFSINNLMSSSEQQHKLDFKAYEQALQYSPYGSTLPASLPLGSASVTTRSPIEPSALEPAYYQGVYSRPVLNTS

[2] = biological target: T1, Flag-FOXA1 (human (cDNA of PC cells, said of the Venus constructs)); experiment: co-IP; in vitro binding assay: purified proteins in 20 mM Tris-HCl pH 7.5, 150 mM NaCl, 0.1% Triton X-100, 1 mM DTT, 4 °C, 5 h; FOXA1 immunoprecipitated, bound proteins by western blot; with or without ribavirin-phosphate; both purified
[3] = biological target: Flag-AR (human (cDNA of PC cells, said of the Venus constructs)) (UniProt P10275); experiment: co-IP; full-length OCT4 and deletion mutants tested for association with AR (Supplementary Fig. 3a); set-up not shown
[4] = biological target: OCT4 (human (endogenous in LNCaP, 22Rv1, DU145-CR, PC3-CR)) (UniProt Q01860); experiment: co-IP; immunoprecipitation and western blot (Supplementary Fig. 6d); cells not named for this experiment (section on DU145 cells)
[5] = biological target: OCT4 (human (endogenous in LNCaP, 22Rv1, DU145-CR, PC3-CR)) (UniProt Q01860); experiment: co-IP; endogenous proteins; whole cell extracts in 50 mM Tris-HCl pH 8.0, 150 mM NaCl, 1% NP-40; indicated antibodies overnight at 4 °C, protein G agarose; LNCaP and 22Rv1 cells (with DHT), DU145-CR and PC3-CR cells
[6] = biological target: OCT4 (human (endogenous in LNCaP, 22Rv1, DU145-CR, PC3-CR)) (UniProt Q01860); experiment: co-IP; xenograft tumours (22Rv1; DU145-CR) homogenised in RIPA buffer; mice treated with vehicle or ribavirin

Measured: binding

HA-OCT4 (from UniProt Q01860 1-360)
binds: [1] | [2] | [3]

B1: nuclear respiratory factor 1 (protein, UniProt Q16656 1-503)
chain: MEEHGVTQTEHMATIEAHAVAQQVQQVHVATYTEHSMLSADEDSPSSPEDTSYDDSDILNSTAADEVTAHLAAAGPVGMAAAAAVATGKKRKRPHVFESNPSIRKRQQTRLLRKLRATLDEYTTRVGQQAIVLCISPSKPNPVFKVFGAAPLENVVRKYKSMILEDLESALAEHAPAPQEVNSELPPLTIDGIPVSVDKMTQAQLRAFIPEMLKYSTGRGKPGWGKESCKPIWWPEDIPWANVRSDVRTEEQKQRVSWTQALRTIVKNCYKQHGREDLLYAFEDQQTQTQATATHSIAHLVPSQTVVQTFSNPDGTVSLIQVGTGATVATLADASELPTTVTVAQVNYSAVADGEVEQNWATLQGGEMTIQTTQASEATQAVASLAEAAVAASQEMQQGATVTMALNSEAAAHAVATLAEATLQGGGQIVLSGETAAAVGALTGVQDANGLVQIPVSMYQTVVTSLAQGNGPVQVAMAPVTTRISDSAVTMDGQAVEVVTLEQ
binds: [4] | [5] | [6]
